Some of the results follow.

Sequences of proteins named here, by UniProt entry; tags and fusion partners are left off.
UniProt Q0JBA9, entry or part of it: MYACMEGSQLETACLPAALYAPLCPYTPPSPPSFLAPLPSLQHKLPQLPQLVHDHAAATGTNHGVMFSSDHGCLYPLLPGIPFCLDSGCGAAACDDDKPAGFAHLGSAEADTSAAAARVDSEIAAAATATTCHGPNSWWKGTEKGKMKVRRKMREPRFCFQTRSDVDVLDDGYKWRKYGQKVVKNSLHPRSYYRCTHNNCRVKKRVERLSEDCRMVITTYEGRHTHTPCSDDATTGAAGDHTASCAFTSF

The target of the assay is OsWRKY34 (Oryza sativa, UniProt Q0JBA9 1-250). The experiment in a line: protein-binding microarray (RPBM); PBS, 2% BSA, 51.3 ng/ul salmon testes DNA, 50 uM zinc acetate, 200 nM TF, 25 C, 1 h; high values mean tight binding. The note with it: protein: recombinant; tags: N-terminal polyhistidine and DsRed monomer fusion (pET32a); label: CyDye5-dUTP incorporated in the synthesized complementary strand; 3' TTTTT single-stranded linker to array surface; dsDNA, one strand shown. An outline of the steps: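 The binding signal is fluorescence intensity per array feature (arbitrary units). Readings came from an Axon 4000B scanner after a washed, 2% BSA-blocked, double-stranded custom Agilent array had been incubated for 1 h at 25 °C with 200 nM protein and 50 µM zinc acetate. The protein was a Ni–NTA-purified transcription factor fused N-terminally to polyhistidine and DsRed, expressed in E. coli BL21-CodonPlus.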
For “ATTTCGGCGACACGAGGACACGCCGATTTCCCCGCGGACCCGGAGTCACCTAGTGCAG”, the binding signal is 10300 fluorescence intensity (a.u.).

For the sequence “TTTTATCTCCTATTATCTCACCTGCTCACTTTTTTATCCACGGAGTCACCTAGTGCAG”, the binding signal is 8470 fluorescence intensity (a.u.).

Turning to “TATTTAGTGCTTTTTCACTGGCGCTTAATCTGTTAGTTACCGGAGTCACCTAGTGCAG”, the binding signal is 9490 fluorescence intensity (a.u.). As for “CTCACTTCTTTACCTTTTCCTTTCTTTCAACTATTTTCTCCGGAGTCACCTAGTGCAG”, the binding signal was 9990 fluorescence intensity (a.u.). Turning to “ATGACTTTTTTTTCCTATTCCTTCGTTTTAAAATCCACATCGGAGTCACCTAGTGCAG”, the binding signal was 9120 fluorescence intensity (a.u.). For “ATTCTATCCATCATAATCATTTGAATAATTATTTGGTATTCGGAGTCACCTAGTGCAG”, the binding signal was 8630 fluorescence intensity (a.u.). As to “AGGGGTGCTTGAGAAAAACTAACTTCGTTGACCTGAAGAACGGAGTCACCTAGTGCAG”, the binding signal is 11600 fluorescence intensity (a.u.). “TGACATTTGCCATCCGTACCGTGATCCTCCTTTTACTGCTCGGAGTCACCTAGTGCAG”: the binding signal was 11300 fluorescence intensity (a.u.). Consider “ACCAAATTTAACTTACATGCATGATATCTTTATTTATTATCGGAGTCACCTAGTGCAG”, for which the binding signal is 8940 fluorescence intensity (a.u.). Next, “GGCAGCCACTATTTGTTGGTCATTATGGCTTTGCAGGAATCGGAGTCACCTAGTGCAG”: 9080 fluorescence intensity (a.u.); “GGTCCATCCATCCTGCCGTCTTCTACGTACTTCGTTGGATCGGAGTCACCTAGTGCAG”: 12900 fluorescence intensity (a.u.); “TGTTGTTCTAGTGTTTAGCGTGCGTTCCAGTTAATTAATCCGGAGTCACCTAGTGCAG”: 9010 fluorescence intensity (a.u.). Next, “TTTAGTCTATTGTTGAGATGTACATGTTTTATATTTTATACGGAGTCACCTAGTGCAG”: 9430 fluorescence intensity (a.u.); “GGCCACTACTTCTCTGGGCTCTGGGCCTCTGGCTGCTCATCGGAGTCACCTAGTGCAG”: 9160 fluorescence intensity (a.u.); “CTCACCGCACCCGTGTCCTCCTTCCACACCGCAATCTCGCCGGAGTCACCTAGTGCAG”: 9570 fluorescence intensity (a.u.).

Consider “TACCTACGATTAGATTTTGCTGGCCCGTGCATGCCTCCTACGGAGTCACCTAGTGCAG”, for which the binding signal is 8750 fluorescence intensity (a.u.). Consider “TATGTGTTTTTGTTTATTTTTTTGTTCGTCTAACATCAAACGGAGTCACCTAGTGCAG”, for which the binding signal was 11100 fluorescence intensity (a.u.). Under “AGCAGGTCATAAAGAAATCTTGAACTACGTAAGCACTGTACGGAGTCACCTAGTGCAG” stands 8170 fluorescence intensity (a.u.). Under “TCCATTCATTCACTTCATGCATTCATTTCATACTCTATTACGGAGTCACCTAGTGCAG” stands 16100 fluorescence intensity (a.u.); under “AAACTCCCAACGCCTCGCTCATCTCGATCTCCATCTCCAACGGAGTCACCTAGTGCAG”, 8470 fluorescence intensity (a.u.); under “TATGTTATCATTTTCTTTCGATTTACTTATAACTATTTATCGGAGTCACCTAGTGCAG”, 8600 fluorescence intensity (a.u.). Next, “TCTGGCCCAAGCCCAGGTTGTGGCCTGGGGAGGGGAAGTGCGGAGTCACCTAGTGCAG”: 8170 fluorescence intensity (a.u.); “ATTCTCTCCCCGGCGATTCTCTGGCCGCTTCTCCTCCCTCCGGAGTCACCTAGTGCAG”: 9260 fluorescence intensity (a.u.). Consider “ATTGACCAACTCCGTTGACCAGTCAAACCTCTCTCTCCCTCGGAGTCACCTAGTGCAG”, for which the binding signal is 14800 fluorescence intensity (a.u.). Next, “ATGTTTCTGCGGCCCGTCATCCGTGTTTGAGTCGGTTATACGGAGTCACCTAGTGCAG”: 10700 fluorescence intensity (a.u.); “CGTCGCCGCCAACTACGCCGACCTCACCACCGCCGCGTGGCGGAGTCACCTAGTGCAG”: 8340 fluorescence intensity (a.u.); “GGTACTTCTGATTGATTCAATAATAATTTGGGGAGCTTAACGGAGTCACCTAGTGCAG”: 9230 fluorescence intensity (a.u.).

For the sequence “AAACGGAAAGAACTCTATCTGTGATCTGTCTATAGTTGGACGGAGTCACCTAGTGCAG”, the binding signal was 14300 fluorescence intensity (a.u.). Next, “TCCCTTCTAACTCACCTTGTTGCTGTTATTGTGCCAATGTCGGAGTCACCTAGTGCAG”: 9960 fluorescence intensity (a.u.); “CGCCTCCACATCTCCACACGCAACACACGGAGACGAATTTCGGAGTCACCTAGTGCAG”: 10000 fluorescence intensity (a.u.). Next, “TAAGGAGGGTGTTGGGAGGGTGGGAGCTTTGCTTGGGGTGCGGAGTCACCTAGTGCAG”: 10200 fluorescence intensity (a.u.); “GGACGAACCATTTGCCCATTTTCACATGATGTTTAGTACACGGAGTCACCTAGTGCAG”: 9100 fluorescence intensity (a.u.).

As to “CTCGTCCTCTCTCCTATCTTCTATTCTCTGCGCCACATCACGGAGTCACCTAGTGCAG”, the binding signal is 9660 fluorescence intensity (a.u.).

“ACAACCAGGAATTCCTCACATTTGTTGCCACCATACTTTCCGGAGTCACCTAGTGCAG”: the binding signal is 11200 fluorescence intensity (a.u.).

For “TTGTCGCCACCCATACCTAATGAAGTTCCTTACATTTTTCCGGAGTCACCTAGTGCAG”, the binding signal is 8910 fluorescence intensity (a.u.). Next, “ACAGATTGCTCCACTTCGCCTGCCTGCTTCGCCCACCGTCCGGAGTCACCTAGTGCAG”: 9730 fluorescence intensity (a.u.). Regarding “ACAATTAACACACGTAAACACTATCTGCTATTGTAAAAAACGGAGTCACCTAGTGCAG”, the binding signal was 8460 fluorescence intensity (a.u.). For “AAATAGTCAAAATTTTCCTACTAGGGCTAGTATTTCCACTCGGAGTCACCTAGTGCAG”, the binding signal is 8830 fluorescence intensity (a.u.). As to “AATTTTTTTTCAAAATACTTGTTGTCCTCTCCTCACATCCCGGAGTCACCTAGTGCAG”, the binding signal is 8360 fluorescence intensity (a.u.). Under “CTACCACACAACACATTTCACCTCGCAATTAATAAGATCCCGGAGTCACCTAGTGCAG” stands 8500 fluorescence intensity (a.u.); under “CGGTCAACTAACCCAGTCGCCATTGCCGTTAACTTCTTCACGGAGTCACCTAGTGCAG”, 9100 fluorescence intensity (a.u.). Under “AAAATATGACGCTACACTTTTCACTTGATTTCAATCACTTCGGAGTCACCTAGTGCAG” stands 9510 fluorescence intensity (a.u.).

Source of the values: paper PMC7819943, “Rice protein-binding microarrays: a tool to detect cis-acting elements near promoter regions in rice”.
